# PubChem BioAssay AID652243 | Drosophila RNAi Screening Center – 2013
# Test: 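Fly regulators of androgen-dependent reporter output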 (primary screen)
# System: Drosophila S2R+ cells
# Reagents: long dsRNA against Drosophila genes
# Timing: 72 h (48 h, then 24 h hormone)
# Challenge: synthetic androgen R1881 at 10 nM for 24 h
# Detection: 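Firefly light from an androgen-responsive reporter and Renilla control light per well, raw and unnormalised, for each of two replicates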
# Direction: firefly reporter light: higher = more light from androgen-responsive reporter; Renilla control light: higher = more constitutive control signal (cell number, transfection)
# Call rule: 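Across duplicate plates, a knock-down whose log firefly/Renilla ratio shifted a set fold down or up from the GFP/LacZ control mean was a hit; the downward cut appears as both 1.5 and 3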
# Calls: active = hit: reporter lowered or raised; inactive = no hit
# In all, the deposit lists about 24,000 reagents; below is a random part of those with a known target gene and a result. Of all reagents, 246 (1%) got an active call. 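Plates not normalised; calls are printed but the firefly/Renilla ratio behind them is not deposited; fold cut for lowering reported inconsistently.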 Raw values are not corrected between plates. The numbers tell different reagents against one gene apart. Names joined by + are all predicted targets of the reagent. Reagent sequences are not shown. Not stated in the record: the amount of reagent.
predicted target,reagent,"firefly reporter light, replicate 1","firefly reporter light, replicate 2","Renilla control light, replicate 1","Renilla control light, replicate 2",activity call
ZnT77C,1,2.83e5,2.41e5,3.18e6,2.67e6,inactive
ZnT77C,2,3.42e5,2.53e5,2.16e6,1.91e6,inactive
Mrgn1,1,34160,28112,2.62e5,2.31e5,inactive
CG31142,1,2.21e5,57943,1.40e5,73335,inactive
CG14244,1,2.89e5,2.30e5,2.96e6,2.33e6,inactive
CG12307,1,1.99e5,2.04e5,1.19e6,1.08e6,inactive
CG12093,1,8.19e5,4.99e5,1.54e6,1.34e6,inactive
CG14414,1,3.50e5,3.64e5,3.79e6,4.05e6,inactive
karr,1,2.65e5,3.19e5,6.28e5,6.41e5,inactive
mei-9,1,2.00e5,2.75e5,1.27e6,1.45e6,inactive
CG31229,1,1.03e5,1.57e5,1.90e5,3.45e5,inactive
AP-2sigma,1,3.72e5,4.10e5,3.75e6,3.69e6,inactive
Eig71Ek,1,3.99e5,2.72e5,3.11e6,2.34e6,inactive
CG8407,1,1.97e5,1.36e5,1.55e6,1.77e6,inactive
phtf,1,7.70e5,9.34e5,1.51e6,1.78e6,inactive
phtf,2,4.46e5,6.45e5,3.27e5,1.10e6,inactive
CG45067,1,85645,1.32e5,1.38e6,1.48e6,inactive
CG45067,2,2.25e5,1.72e5,6.20e5,5.49e5,inactive
Syt12,1,4.15e5,5.91e5,3.59e6,3.88e6,inactive
Pus7,1,1.40e5,1.70e5,1.84e6,1.70e6,inactive
Pus7,2,2.08e5,2.62e5,4.15e5,6.30e5,inactive
Hasp,1,1.07e6,1.07e6,2.58e6,2.16e6,inactive
l(2)k10201,1,4.57e5,3.37e5,2.53e6,1.93e6,inactive
l(2)k10201,2,4.22e5,2.10e5,1.83e6,1.56e6,inactive
Set,1,80677,96353,6.59e5,8.05e5,inactive
CG11089 + CG31381,1,1.14e5,1.12e5,3.03e5,2.66e5,inactive
CG11089 + CG31381,2,54825,98665,5.43e5,4.48e5,inactive
CG11089 + CG31381,3,5.89e5,4.88e5,1.40e6,1.47e6,inactive
tpr,1,1.17e6,6.49e5,1.43e6,9.12e5,inactive
tpr,2,4.82e5,8.03e5,1.10e6,1.23e6,inactive
nst,1,8.78e5,8.41e5,1.18e6,1.57e6,inactive
Aven,1,7.61e5,6.62e5,3.72e6,3.69e6,inactive
RhoGAP102A,1,2.43e5,3.41e5,4.41e6,3.70e6,inactive
RhoGAP102A,2,1.16e6,1.04e6,2.29e6,1.60e6,inactive
CG31664,1,7.17e5,7.21e5,1.96e6,2.19e6,inactive
mlt (retired record),1,7.48e5,1.01e6,1.58e6,2.02e6,inactive
mlt (retired record),2,6.22e5,4.37e5,7.83e5,5.53e5,inactive
CG8607,1,88557,1.41e5,7.33e5,1.46e6,inactive
CG9674,1,54820,66679,3.42e5,3.26e5,inactive
CG9674,2,1.59e5,1.81e5,1.22e6,1.15e6,inactive
CG16713,1,1.45e5,1.06e5,1.34e6,9.06e5,inactive
CG13800 (retired record),1,53484,64087,6.23e5,7.54e5,inactive
CG13800 (retired record),2,2.98e5,1.81e5,1.02e6,7.17e5,inactive
Spt7,1,91553,66186,7.06e5,6.79e5,inactive
Spt7,2,1.16e6,1.12e6,9.81e5,9.55e5,inactive
LysRS,1,92835,1.03e5,8.04e5,6.99e5,inactive
LysRS,2,1.11e6,9.99e5,9.60e5,1.27e6,inactive
CG9328,1,6.96e5,1.01e6,1.50e6,2.11e6,inactive
CG15208,1,44259,74028,2.86e5,4.19e5,inactive
cerv,1,3.17e5,3.19e5,1.67e6,2.57e6,inactive
cerv,2,7.41e5,7.21e5,7.59e5,7.49e5,inactive
Fas1,1,1.68e5,1.37e5,2.26e6,1.76e6,inactive
CG42709,1,6.40e5,5.13e5,2.10e6,1.97e6,inactive
CG42709,2,8.71e5,9.32e5,1.06e6,1.07e6,inactive
Cyp4c3,1,62626,47724,5.90e5,2.58e5,inactive
Cyp4c3,2,3.78e5,2.49e5,5.30e5,4.48e5,inactive
Gnpnat,1,1.41e5,1.58e5,1.33e6,7.85e5,inactive
nvy,1,5.02e5,3.72e5,2.64e6,2.16e6,inactive

Just “Renilla control light, replicate 1” (5 entries from above):
CG15208 = 2.86e5
cerv #1 = 1.67e6
cerv #2 = 7.59e5
Fas1 = 2.26e6
CG42709 #1 = 2.10e6
